Source: paper PMC9771472

Sequences of proteins named here, by UniProt entry; tags and fusion partners are left off. Residues count along the entry.
UniProt Q05066, 57-141 Y127A: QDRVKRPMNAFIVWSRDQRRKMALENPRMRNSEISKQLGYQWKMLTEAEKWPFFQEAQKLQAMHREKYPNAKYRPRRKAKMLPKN

Biological target: SRY HMG box Y72A Y127A (human) (UniProt Q05066)
Test: steady-state FRET; stopped-flow FRET
Details: faster dissociation, features similar to Y72C/Y72H; FRET: 10 mM potassium phosphate, 10 mM Tris-HCl, 140 mM KCl, pH 8.0, 15 and 37 C, 25 nM DNA (Kd); sf-FRET 1 uM complex + 20 uM unlabelled DNA at 10, 15, 25, 37 C; recombinant protein; residues 57-141

TCGGTGATTGTTCAG (double strand) [15-bp SRY site, FRET-labelled]
binding result: binds

Construct, isoform or probe ends are uncertain for at least one entry. At least one verdict was read from the data and is not stated in words by the source.
